At least one structure is not confirmed: it was looked up by name or label, or the drawing left a doubt.
Columns and labels:
[1] = test system: MCF-7 human breast cancer cells; assay: Proliferation (DNA content) of human breast cancer MCF-7 cells (Example 7); type: cell-based; settings: MCF-7, Experiment 1
From the text: MCF-7 human breast cancer cells were obtained from the American Type Culture Collection #HTB 22 at passage 147 and routinely grown in phenol red-free Dulbecco's Modified Eagle's-Ham's F12 medium, the supplements mentioned above and 5% FBS. The MCF-7 human breast adenocarcinoma cell line was derived from the pleural effusion of a patient. MCF-7 cells were used between passages 148 and 165 and subcultured weekly
Thereafter, medium was replaced with fresh medium containing the indicated concentrations of compounds diluted from 1000×stock solutions in 99% redistilled ethanol in the presence or absence of E2. Control cells received only the ethanolic vehicle (0.1% EtOH, v/v). Cells were incubated for the specified time intervals with medium changes at 2- or 3-day intervals. Cell number was determined by measurement of DNA content.
All results are expressed as means±SEM.

[2] = Uterine and vaginal weight in ovariectomized BALB/c mice treated orally for 9 days with or without estrone (Example 3); type: in vivo; settings: OVX mice, absence of estrone, 3 μg and 30 μg daily
Description: Female BALB/c mice (BALB/cAnNCrlBR) weighing 18-20 g were obtained from Charles-River, Inc. (St-Constant, Quebec, Canada) and housed 5 per cage in a temperature (23±1° C.)- and light (12 h light/day, lights on at 7:15)-controlled environment. The mice were fed rodent chow and tap water ad libitum. The animals were ovariectomized (OVX) under Isoflurane anesthesia via bilateral flank incisions and randomly assigned to groups of 10 animals. Ten mice were kept intact as controls.
In the second experiment (Table 6), TSE 424 was administered orally by gavage once daily at doses of 1, 3, 10 or 30 μg/animal for 9 days, starting 2 days after ovariectomy. In both experiments, to evaluate the antiestrogenic activity, treatment with estrone (E1, […], s.c. injection, twice daily) was started 5 days post-ovariectomy and was administered for a 6 day-period. Compounds were dissolved in ethanol (4% final concentration) and administered in 0.4% methylcellulose. Mice in the intact and OVX control groups received the vehicle alone (4% ETOH-0.4% methylcellulose) during the 9-day period. The animals were killed by exsanguination at the abdominal aorta on the 11th morning following ovariectomy. The uteri and vagina were rapidly dissected, weighed, and kept in 10% buffered formalin for further histologic examination.

Which results are given for `Cc1c(-c2ccc(O)cc2)n(Cc2ccc(OCCN3CCCCCC3)cc2)c2ccc(O)cc12` [TSE 424, 1-[[4-[2-(hexahydro-1H-azepin-1-yl)ethoxy]phenyl]methyl]-2-(4-hydroxyphenyl)-3-methyl-1H-indol-5-ol, acetate]?
Maximal stimulation of DNA by tested compounds % of 1 nM E2 stimulation [1]: N.S.; stimulatory effect on uterine and vaginal weight [2]: no significant stimulatory effect
